LdMetRS: 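Primary screen of methionyl-tRNA synthetase; the read-out is not stated. Target: Methionyl-tRNA synthetase (putative), Leishmania donovani (UniProt E9BF75). The test concentration is not given. Values are per cent inhibition. About 68,000 compounds were tested under these conditions; 0.035% (about 24) showed 50% or more at least once.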
Mtb heat-shock: 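Assay on Mycobacterium tuberculosis, filed only as a heat shock assay from Cornell; the read-out is not stated. The concentration is filed as 10 mM, unlikely as a test dose, so the dose is not known. The record gives no direction; compounds that gave an IC50 in retests scored well above the rest, so higher reads as stronger inhibition. Size under these conditions: about 69,000 compounds, about 930 of them at 50% or above in at least one test.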

The chains behind the UniProt entries cited, without tags or fusion partners.
UniProt E9BF75, entry or part of it: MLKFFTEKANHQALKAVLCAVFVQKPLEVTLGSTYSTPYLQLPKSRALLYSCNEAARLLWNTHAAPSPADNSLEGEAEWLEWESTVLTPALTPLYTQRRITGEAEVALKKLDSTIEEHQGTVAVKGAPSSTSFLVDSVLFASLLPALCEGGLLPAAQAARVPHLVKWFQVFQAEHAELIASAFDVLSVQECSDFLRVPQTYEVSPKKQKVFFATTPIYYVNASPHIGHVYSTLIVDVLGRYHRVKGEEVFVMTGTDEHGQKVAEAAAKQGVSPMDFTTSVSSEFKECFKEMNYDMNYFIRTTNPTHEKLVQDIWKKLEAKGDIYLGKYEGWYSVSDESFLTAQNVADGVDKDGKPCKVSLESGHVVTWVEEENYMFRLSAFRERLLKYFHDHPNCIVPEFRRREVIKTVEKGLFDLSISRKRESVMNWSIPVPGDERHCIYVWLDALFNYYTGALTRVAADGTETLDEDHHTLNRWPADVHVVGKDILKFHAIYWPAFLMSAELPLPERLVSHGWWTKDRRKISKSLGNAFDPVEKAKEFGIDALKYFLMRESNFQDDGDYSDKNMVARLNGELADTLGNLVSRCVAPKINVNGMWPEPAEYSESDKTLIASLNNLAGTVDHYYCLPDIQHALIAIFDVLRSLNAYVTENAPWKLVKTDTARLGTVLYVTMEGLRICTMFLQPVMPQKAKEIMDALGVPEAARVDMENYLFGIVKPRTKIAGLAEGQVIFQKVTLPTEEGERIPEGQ

Results are percentages, as filed.
The record does not define 0% and 100%; most values in the screen are far below 50% and negative numbers occur (in some assays of this library far below -100).
The compounds are a random part of those screened.
A dash means the value is not listed here; it may have been measured.

structure | LdMetRS | Mtb heat-shock
O=C(NCc1ccc(F)cc1)NCC(O)(c1ccco1)C1CC1 (centres unmarked) | 1.439% | 14.41%
CC(C)CC(=O)NCCn1nc(C2CCNC2)c2cccnc21 (centres unmarked) | 10.94% | -
CN1CC(=O)N(c2ccccc2)Cc2c(NC3CC3)ncnc21 | 7.429% | 0.6638%
Cc1ccc(NC2CCN(C(=O)c3cccnc3N(C)C)CC2)nn1 | 8.434% | -6.43%
CN1CCC(N(C)C[C@H]2CC[C@@H](Cc3cccc(O)c3)O2)CC1 | 1.465% | -39.92%
Clc1ccc(C(CNCc2ccncc2)n2cccn2)cc1 (centres unmarked) | 7.008% | -7.465%
CCOc1cccc(C(=O)N2CCC3(CC2)[C@H](O)C[C@@H]3OC)c1 | 14.25% | -35.14%
Cc1noc([C@@H]2C[C@H]3OCC[C@H]3N(Cc3cc(C)c(C)o3)C2)n1 | 18.73% | -
CCCn1nc2c(cc1=O)CN(CCS(C)(=O)=O)CC2 | 15.69% | 3.078%
CCn1ccc(NS(=O)(=O)c2cccc(COC)c2)n1 | 13.15% | 9.796%
CC(C)N(C)Cc1cncc2c1CCN(Cc1cccs1)C2 | 13.49% | -
COCc1cccc(C(=O)N2CCN(C3=NCC(C)(C)S3)CC2)c1 | 14.8% | -3.592%
Cc1cc(NC(=O)CN2CCc3cnc(C)nc3C2)on1 | 3.937% | -6.252%
CC[C@@H]1N(Cc2ccc(C)o2)CCC[C@]12CCC(=O)N2CCOC.O=C(O)C(F)(F)F | - | -28.97%
O=C1COC[C@H]([C@H](O)c2ccc(NC(=O)c3cccnc3)cc2)N1 | 9.023% | -
Cc1ccc(CNC(=O)C2CCN(C(=O)c3ccccc3)CC2)n1C | 17.6% | 8.887%
C=Cc1ccc(C(=O)N2CCCC(Nc3ccc(OC)cc3)C2)cc1 (centres unmarked) | 11.96% | 12.24%
CCOC(=O)C1CN(C(=O)COC)Cc2ncn(CC)c21 (centres unmarked) | 18.3% | 6.001%
CCNS(=O)(=O)C1CCN(C(=O)c2ccc(F)cc2)C1 (centres unmarked) | 3.855% | 13.11%
Cc1ncccc1OC1(C(=O)NCc2noc(C(C)C)n2)CCNCC1 | 3.559% | 10.52%
Cc1cccc(-n2ncc(C(=O)N3CCn4c(C)nnc4C3)c2C)c1 | 16.54% | 10.67%
CC(C#N)CN(C)C(=O)CCNC(=O)OC(C)(C)C (centres unmarked) | 14.02% | 3.52%
O=C(O)[C@@H]1CCN(C(=O)c2cscn2)[C@@H]1c1ccc(F)cc1 | 9.449% | 12.89%
Cc1ccoc1C(=O)NC1CCN(Cc2csc3c(F)cccc23)CC1 | 18.75% | 11.51%
CC(C)NC(=O)[C@H]1C[C@@H]2[C@@H](C1)OCCN2Cc1nccs1 | 13.36% | -
COc1ccc(Cl)cc1CCNC(=O)NCc1ccncc1 | 7.833% | -38%
C[C@H]1C(=O)NC[C@H]2CN(Cc3ccccc3)C[C@H]21 | 11.78% | -
COc1ccc(CN[C@H]2CC[C@@]3(CCC(=O)N3)CC2)cc1.O=C(O)C(F)(F)F | - | 2.572%
CCc1ncnc(N2CCOCC2C(N)=O)c1F (centres unmarked) | 14.71% | 8.687%
Cc1nc(CSCCC(=O)NCc2ccc(-n3cncn3)nc2)cs1 | 12.78% | -18.21%
O=C(O)C(F)(F)F.[H][C@@]12CCN(Cc3ccc(F)cc3)[C@]1([H])CC[C@@H](C(=O)NCc1ccco1)O2 | - | -1.706%
OC(COCc1ccco1)CN1CCc2c(ncn2C2CC2)C1 (centres unmarked) | 8.96% | 8.067%
O=C(C1CCCCC1)N1C[C@H]2CNC[C@H]2C1 | 11.2% | -
Cc1nc(-c2ccccc2)cc(C2CCNCC2)n1.Cl | - | -12.22%
CC(=O)NCC(=O)N1CCc2nc(C)nc(C)c2CC1 | 13.04% | 5.172%
CCc1nc(C2NC3(CCCC3)C(=O)N2CC2CC2)cs1 (centres unmarked) | 10.17% | -12.17%
Cc1cccc(S(=O)(=O)NCC2CCN(c3cnccn3)CC2)c1 | 12.14% | -8.606%
Cc1cc(F)ccc1-c1ccccc1CC1CNCCNC1=O (centres unmarked) | 16.56% | -
CO[C@@H]1CCN(Cc2nccs2)C[C@@H]1Cc1cccc(C)c1 | 14.29% | -
CCCc1cc(NCCn2cccn2)n2ncnc2n1 | 10.65% | 8.061%
Cc1nccn1CCC1CCN(C(=O)C2CC3(CCNCC3)CN2)CC1 (centres unmarked) | 16.97% | 10.47%
O=C(O)C(F)(F)F.[H][C@@]12CN(Cc3ccco3)CCO[C@]1([H])CN(S(=O)(=O)CCC)C2 | - | 9.183%
Cc1nc(CCNC(=O)CC2CCN(C(C)C)CC2)sc1Cl | 3.846% | -17.36%
Cc1noc(C)c1S(=O)(=O)N1CCC(Oc2cccnn2)CC1 | 0.7194% | -13.08%
Cc1ccccc1CNC(=O)c1ccccc1-n1cnc(CN)c1 | 11.3% | -12.78%
Cn1cnc2c1CCN(CCS(=O)(=O)c1ccccc1)C2 | 12.59% | 4.846%
CCOCc1nc2c(c(N3CCN4CCCC4C3)n1)CCNCC2 (centres unmarked) | 15.03% | -17.5%
Cc1cc(C(=O)N(C)C)nc(C2(C)CCCN2c2ccnc(C)n2)n1 (centres unmarked) | 9.627% | 0.9245%
O=C(O)C1CCCN1c1nc(C2CC2)cc(C(F)(F)F)n1 (centres unmarked) | 1.044% | -1.819%
COc1ccc(CN2CCO[C@@H]3C[C@@H](C(=O)NC(C)C)C[C@H]32)cc1 | 11.4% | -
COCC(=O)Nc1cc(S(=O)(=O)C(F)(F)F)ccc1OC | 5.707% | 4.766%
Cl.Cl.Cn1nc(C2CNCCO2)cc1CCOc1ccc(Cl)cc1 (centres unmarked) | - | -1.146%
Cc1ccc2c(n1)N(Cc1cccnc1)CCN(C(=O)C1CC1)C2 | 2% | -
O=C(Cc1ccc2c(c1)CCCC2)N[C@@H]1CC[C@@H](n2ccnc2)[C@@H]1O | 9.04% | -0.9828%
O=C(C1CCCO1)N1CC[C@@H]2CN(Cc3ccccc3)S(=O)(=O)[C@@H]2CC1 (some centres unmarked) | 14.86% | -
CC(C)NC(=O)c1ccc2nnc(C3CN(C)CCN3C)n2c1 (centres unmarked) | 16.43% | -
Cc1nc2n(n1)CC(NCc1cc(Cl)c3c(c1)OCCO3)CC2 (centres unmarked) | 22.16% | 13.96%
CN1C(=O)CO[C@H](c2ccc(NC(=O)NC(C)(C)C)cc2)[C@H]1CO | 3.729% | -11.14%
Cc1cc(C)n(CC2CCCN2C(=O)c2cccc3[nH]ncc23)n1 (centres unmarked) | 13.65% | 2.15%
Cc1nc2c(c(N3CCC4(CCCNC4=O)C3)n1)CCC2 (centres unmarked) | 8.871% | -4.348%
CC(C)CN1C(=O)C[C@@H]2[C@@H]1CCN2Cc1cccc(C#N)c1 | 7.96% | -
Cc1ccc(N(CCC#N)C(=O)CN2CCCC2c2ccsc2)cc1C (centres unmarked) | 25.08% | 4.625%
O=C1c2cnc(N3CCCC3)nc2CN1C1CCS(=O)(=O)C1 (centres unmarked) | 20.1% | 9.039%
Cc1n[nH]c(C2CN(C(=O)c3cnc[nH]3)CCO2)n1 (centres unmarked) | 19.44% | -19.12%
CCC(C)C(=O)Nc1ccc2oc(=O)n(CCN(C)C)c2c1 (centres unmarked) | 15.92% | -11.65%
CCc1[nH]ncc1C(=O)N1CCN(c2nccc(OC)n2)CC1 | 5.541% | 2.79%
CS(=O)(=O)N1CCc2ccc(=O)n(CC3CCOCC3)c2CC1 | 2.128% | 14%
Cc1c[nH]nc1C1CCCN1Cc1nccn1C.O=CO (centres unmarked) | - | -3.379%
CSc1ccsc1C(=O)NS(=O)(=O)c1cnn(C)c1 | 15.27% | 3.08%
CSCc1noc(CN2CC(Cc3ccccc3)CC2=O)n1 (centres unmarked) | 10.95% | 18.63%
CN(C)CC1CN(Cc2ccc3c(c2)OCO3)Cc2nccn2C1 (centres unmarked) | 6.438% | -
CNC(=O)[C@H]1C[C@@H]2CN(C(=O)c3cncc(C)c3)C[C@@H]2N1C | 14.01% | -
O=C(O)C(F)(F)F.O=C(O)C(F)(F)F.[H][C@@]12CCN(Cc3cccc(C#N)c3)[C@@]1([H])CC(=O)N2Cc1cccnc1 | - | 14.24%
CC(=O)N1CCN(C(=O)CCc2cc(Br)cs2)CC1 | 14.71% | 4.069%
Cc1nc(C)n(CC2CN(Cc3ccncc3)Cc3nccn3C2)n1.O=C(O)C(F)(F)F.O=C(O)C(F)(F)F (centres unmarked) | - | -35.48%
CN(Cc1n[nH]c2c1CCC2)C(=O)c1cccc(CCC(C)(C)O)c1 | 12.85% | -16.78%
O=C(O)C(F)(F)F.O=C(O)C(F)(F)F.O=C(O)C(F)(F)F.[H][C@@]12CO[C@H](CNc3ncccn3)[C@]1([H])CCN(Cc1ccccn1)C2 | - | -23.42%
Cc1nc(C(C)N(C)Cc2nc(CCC(C)C)no2)c(C)s1 (centres unmarked) | 6.87% | 8.69%

The first 10 entries again:

structure	LdMetRS	Mtb heat-shock
O=C(NCc1ccc(F)cc1)NCC(O)(c1ccco1)C1CC1 (centres unmarked)	1.439%	14.41%
CC(C)CC(=O)NCCn1nc(C2CCNC2)c2cccnc21 (centres unmarked)	10.94%	-
CN1CC(=O)N(c2ccccc2)Cc2c(NC3CC3)ncnc21	7.429%	0.6638%
Cc1ccc(NC2CCN(C(=O)c3cccnc3N(C)C)CC2)nn1	8.434%	-6.43%
CN1CCC(N(C)C[C@H]2CC[C@@H](Cc3cccc(O)c3)O2)CC1	1.465%	-39.92%
Clc1ccc(C(CNCc2ccncc2)n2cccn2)cc1 (centres unmarked)	7.008%	-7.465%
CCOc1cccc(C(=O)N2CCC3(CC2)[C@H](O)C[C@@H]3OC)c1	14.25%	-35.14%
Cc1noc([C@@H]2C[C@H]3OCC[C@H]3N(Cc3cc(C)c(C)o3)C2)n1	18.73%	-
CCCn1nc2c(cc1=O)CN(CCS(C)(=O)=O)CC2	15.69%	3.078%
CCn1ccc(NS(=O)(=O)c2cccc(COC)c2)n1	13.15%	9.796%

Data taken from ChEMBL document CHEMBL3988442, “University of Dundee, Small-Polar-MMV Screening Library” (2021).